In the supplement of paper PMC8728848:
Some of the results follow.

Assays:
Assay in all cases: glycan array binding signal (z-score within array); higher = stronger binding
Settings in all cases: glycan notation: IUPAC condensed, linker removed
[1] = target: Neu5Ac(a2-3)Gal(b1-3)[Neu5Ac(a2-6)]GlcNAc(b1-3)[Fuc(a1-3)[Gal(b1-4)]GlcNAc(b1-6)]Gal(b1-4)Glc
How it was run: (§1)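 The Consortium for Functional Glycomics database supplied 3228 glycan arrays, of which those lacking an available protein sequence were dropped. The binding signal, a within-array Z-score, was averaged across arrays of the same protein sequence and across linkers. Negative scores can be read as non-binding.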

Neu5Ac(a2-3)Gal(b1-4)Glc = target: Neu5Ac(a2-3)Gal(b1-4)Glc
How it was run: as §1

[2] = target: Neu5Ac(a2-3)Gal(b1-4)GlcNAc
How it was run: as §1

[3] = target: Neu5Ac(a2-3)Gal(b1-4)GlcNAc(b1-2)Man
How it was run: as §1

[4] = target: Neu5Ac(a2-3)Gal(b1-4)GlcNAc(b1-2)Man(a1-3)[GlcNAc(b1-2)Man(b1-4)GlcNAc(b1-2)Man(a1-6)]Man(b1-4)GlcNAc(b1-4)GlcNAc
How it was run: as §1

[5] = target: Neu5Ac(a2-3)Gal(b1-4)GlcNAc(b1-2)Man(a1-3)[Neu5Ac(a2-3)Gal(b1-4)GlcNAc(b1-2)Man(a1-6)]Man(b1-4)GlcNAc(b1-4)[Fuc(a1-6)]GlcNAc
How it was run: as §1

[6] = target: Neu5Ac(a2-3)Gal(b1-4)GlcNAc(b1-2)Man(a1-3)[Neu5Ac(a2-6)Gal(b1-4)GlcNAc(b1-2)Man(a1-6)]Man(b1-4)GlcNAc(b1-4)GlcNAc
How it was run: as §1

[7] = target: Neu5Ac(a2-3)Gal(b1-4)GlcNAc(b1-2)[Neu5Ac(a2-3)Gal(b1-4)GlcNAc(b1-6)]Man(a1-6)[Neu5Ac(a2-3)Gal(b1-4)GlcNAc(b1-2)Man(a1-3)]Man(b1-4)GlcNAc(b1-4)GlcNAc
How it was run: as §1

[8] = target: Neu5Ac(a2-3)Gal(b1-4)GlcNAc(b1-3)Gal
How it was run: as §1

[9] = target: Neu5Ac(a2-3)Gal(b1-4)GlcNAc(b1-3)Gal(b1-3)GlcNAc
How it was run: as §1

[10] = target: Neu5Ac(a2-3)Gal(b1-4)GlcNAc(b1-3)Gal(b1-4)GlcNAc
How it was run: as §1

[11] = target: Neu5Ac(a2-3)Gal(b1-4)GlcNAc(b1-3)Gal(b1-4)GlcNAc(b1-3)Gal(b1-4)GlcNAc
How it was run: as §1

[12] = target: Neu5Ac(a2-3)Gal(b1-4)GlcNAc(b1-3)Gal(b1-4)[Fuc(a1-3)]GlcNAc
How it was run: as §1

[13] = target: Neu5Ac(a2-3)Gal(b1-4)GlcNAc(b1-3)GalNAc
How it was run: as §1

[14] = target: Neu5Ac(a2-3)Gal(b1-4)GlcNAc(b1-3)[Neu5Ac(a2-3)Gal(b1-4)GlcNAc(b1-6)]GalNAc
How it was run: as §1

[15] = target: Neu5Ac(a2-3)Gal(b1-4)GlcNAc(b1-6)GalNAc
How it was run: as §1

[16] = target: Neu5Ac(a2-3)Gal(b1-4)GlcNAc(b1-6)[Gal(b1-3)]GalNAc
How it was run: as §1

[17] = target: Neu5Ac(a2-3)Gal(b1-4)GlcNAc(b1-6)[Neu5Ac(a2-3)Gal(b1-3)]GalNAc
How it was run: as §1

[18] = target: Neu5Ac(a2-3)Gal(b1-4)GlcNAc6S
How it was run: as §1

[19] = target: Neu5Ac(a2-3)Gal(b1-4)[Fuc(a1-3)]GlcNAc
How it was run: as §1

[20] = target: Neu5Ac(a2-3)Gal(b1-4)[Fuc(a1-3)]GlcNAc(b1-3)Gal
How it was run: as §1

[21] = target: Neu5Ac(a2-3)Gal(b1-4)[Fuc(a1-3)]GlcNAc(b1-3)Gal(b1-4)GlcNAc
How it was run: as §1

[22] = target: Neu5Ac(a2-3)Gal(b1-4)[Fuc(a1-3)]GlcNAc(b1-3)Gal(b1-4)[Fuc(a1-3)]GlcNAc(b1-3)Gal(b1-4)[Fuc(a1-3)]GlcNAc
How it was run: as §1

[23] = target: Neu5Ac(a2-3)Gal(b1-4)[Fuc(a1-3)]GlcNAc(b1-3)GalNAc
How it was run: as §1

[24] = target: Neu5Ac(a2-3)Gal(b1-4)[Fuc(a1-3)]GlcNAc(b1-6)[Gal(b1-3)]GalNAc
How it was run: as §1

[25] = target: Neu5Ac(a2-3)Gal(b1-4)[Fuc(a1-3)]GlcNAc6S
How it was run: as §1

[26] = target: Neu5Ac(a2-3)Gal6S(b1-4)GlcNAc
How it was run: as §1

[27] = target: Neu5Ac(a2-3)Gal6S(b1-4)[Fuc(a1-3)]GlcNAc
How it was run: as §1

Neu5Ac(a2-3)GalNAc = target: Neu5Ac(a2-3)GalNAc
How it was run: as §1

[28] = target: Neu5Ac(a2-3)GalNAc(b1-4)GlcNAc
How it was run: as §1

[29] = target: Neu5Ac(a2-3)[GalNAc(b1-4)]Gal(b1-4)Glc
How it was run: as §1

[30] = target: Neu5Ac(a2-3)[GalNAc(b1-4)]Gal(b1-4)GlcNAc
How it was run: as §1

[31] = target: Neu5Ac(a2-3)[GalNAc(b1-4)]Gal(b1-4)GlcNAc(b1-3)GalNAc
How it was run: as §1

[32] = target: Neu5Ac(a2-3)[Neu5Ac(a2-6)]GalNAc
How it was run: as §1

Neu5Ac(a2-6)Gal = target: Neu5Ac(a2-6)Gal
How it was run: as §1

[33] = target: Neu5Ac(a2-6)Gal(b1-3)GlcNAc(b1-3)[Gal(b1-4)GlcNAc(b1-6)]Gal(b1-4)Glc
How it was run: as §1

Neu5Ac(a2-6)Gal(b1-4)Glc = target: Neu5Ac(a2-6)Gal(b1-4)Glc
How it was run: as §1

[34] = target: Neu5Ac(a2-6)Gal(b1-4)GlcNAc
How it was run: as §1

[35] = target: Neu5Ac(a2-6)Gal(b1-4)GlcNAc(b1-2)Man(a1-3)Man(b1-4)GlcNAc(b1-4)GlcNAc
How it was run: as §1

[36] = target: Neu5Ac(a2-6)Gal(b1-4)GlcNAc(b1-2)Man(a1-3)[Gal(b1-4)GlcNAc(b1-2)Man(a1-6)]Man(b1-4)GlcNAc(b1-4)GlcNAc
How it was run: as §1

[37] = target: Neu5Ac(a2-6)Gal(b1-4)GlcNAc(b1-2)Man(a1-3)[GlcNAc(b1-2)Man(a1-6)]Man(b1-4)GlcNAc(b1-4)GlcNAc
How it was run: as §1

[38] = target: Neu5Ac(a2-6)Gal(b1-4)GlcNAc(b1-2)Man(a1-3)[GlcNAc(b1-2)Man(b1-4)GlcNAc(b1-2)Man(a1-6)]Man(b1-4)GlcNAc(b1-4)GlcNAc
How it was run: as §1

B1: CALR truncated at D342 (Homo sapiens) (protein)
chain: EPAVYFKEQFLDGDGWTSRWIESKHKSDFGKFVLSSGKFYGDEEKDKGLQTSQDARFYALSASFEPFSNKGQTLVVQFTVKHEQNIDCGGGYVKLFPNSLDQTDMHGDSEYNIMFGPDICGPGTKKVHVIFNYKGKNVLINKDIRCKDDEFTHLYTLIVRPDNTYEVKIDNSQVESGSLEDDWDFLPPKKIKDPDASKPEDWDERAKIDDPTDSKPEDWDKPEHIPDPDAKKPEDWDEEMDGEWEPPVIQNPEYKGEWKPRQIDNPDYKGTWIHPEIDNPEYSPDPSIYAYDNFGVLGLDLWQVKSGTIFDNFLITNDEAYAEEFGNETWGVTKAAEKQMKD
- glycan array binding signal (z-score) [1]: 0.026
- glycan array binding signal (z-score) (Neu5Ac(a2-3)Gal(b1-4)Glc): 0.264
- glycan array binding signal (z-score) [2]: -0.691
- glycan array binding signal (z-score) [3]: 1.56
- glycan array binding signal (z-score) [4]: 0.262
- glycan array binding signal (z-score) [5]: -0.547
- glycan array binding signal (z-score) [6]: 0.174
- glycan array binding signal (z-score) [7]: -0.637
- glycan array binding signal (z-score) [8]: -0.413
- glycan array binding signal (z-score) [9]: -0.238
- glycan array binding signal (z-score) [10]: -1.28
- glycan array binding signal (z-score) [11]: -0.788
- glycan array binding signal (z-score) [12]: 1.2
- glycan array binding signal (z-score) [13]: -0.856
- glycan array binding signal (z-score) [14]: -0.117
- glycan array binding signal (z-score) [15]: 0.454
- glycan array binding signal (z-score) [16]: -0.684
- glycan array binding signal (z-score) [17]: -1.7
- glycan array binding signal (z-score) [18]: -0.22
- glycan array binding signal (z-score) [19]: -0.849
- glycan array binding signal (z-score) [20]: -0.711
- glycan array binding signal (z-score) [21]: 0.453
- glycan array binding signal (z-score) [22]: 0.606
- glycan array binding signal (z-score) [23]: 1.5
- glycan array binding signal (z-score) [24]: -0.059
- glycan array binding signal (z-score) [25]: 1.77
- glycan array binding signal (z-score) [26]: -0.435
- glycan array binding signal (z-score) [27]: 0.177
- glycan array binding signal (z-score) (Neu5Ac(a2-3)GalNAc): -0.187
- glycan array binding signal (z-score) [28]: -0.937
- glycan array binding signal (z-score) [29]: -0.243
- glycan array binding signal (z-score) [30]: 0.289
- glycan array binding signal (z-score) [31]: 0.131
- glycan array binding signal (z-score) [32]: -0.012
- glycan array binding signal (z-score) (Neu5Ac(a2-6)Gal): -0.349
- glycan array binding signal (z-score) [33]: -0.428
- glycan array binding signal (z-score) (Neu5Ac(a2-6)Gal(b1-4)Glc): -0.461
- glycan array binding signal (z-score) [34]: 0.272
- glycan array binding signal (z-score) [35]: -1.97
- glycan array binding signal (z-score) [36]: 0.794
- glycan array binding signal (z-score) [37]: -0.321
- glycan array binding signal (z-score) [38]: 0.761
